Test results from PMC10761119, “Phosphorylation-state dependent intraneuronal sorting of Aβ differentially impairs autophagy and the endo-lysosomal system” (Autophagy, 2023).

Tested on: mouse brain fractions (WTxTHY1-YFP and APP-PSEN1dE9×THY1-YFP)
Assay: ELISA of Aβ species in sucrose, SDS and formic acid soluble mouse brain fractions
Assay type: in vivo
Conditions: mean ± S.D., n = 4 mice, N = 2

non-modified amyloid-β [nmAβ]
Aβ concentration, SDS, APP-PSEN1dE9 (SDS soluble brain fraction, APP-PSEN1dE9×THY1-YFP mice): 71.4 ± 4.5 pg/µg
Aβ concentration, SDS, WT (SDS soluble brain fraction, WTxTHY1-YFP mice): 0 ± 1.6 pg/µg
Aβ concentration, FA, APP-PSEN1dE9 (formic acid soluble brain fraction, APP-PSEN1dE9×THY1-YFP mice): 124.1 ± 18.2 pg/µg
Aβ concentration, FA, WT (formic acid soluble brain fraction, WTxTHY1-YFP mice): 0.3 ± 5.2 pg/µg
Aβ concentration, Sucrose, APP-PSEN1dE9 (sucrose soluble brain fraction, APP-PSEN1dE9×THY1-YFP mice, normalized to WT fractions): 28 ± 4.8 pg/µg
Aβ concentration, Sucrose, WT (sucrose soluble brain fraction, WTxTHY1-YFP mice, normalized to WT fractions): 0 ± 2.3 pg/µg
